{
  "source": "PubChem BioAssay AID540256",
  "about": "(National Center for Advancing Translational Sciences (NCATS), 2011)",
  "note": "Out of some 300,000 compounds screened, about 3,700 (1.2%) were called active. The inconclusive results got no clear call from the source; some entries with a clear call stand among them for comparison. The call rests on the fitted dose curve; tested in HEK293 cells. Where the call is inconclusive, the potency comes from a doubtful curve fit. Potency means the concentration at half of the fitted maximal effect.",
  "data": [
    {"test": "qHTS for Inhibitors of binding or entry into cells for Lassa Virus; further: nearly all actives have a fitted effect of over 50% in size", "conditions": "Lassa virus pseudotype entry inhibition, cell reporter; series mostly up to 37.9 µM", "values": [
      {"molecule": "CCOc1ccc(OCC)c(NC(=O)c2cnc(SC)nc2-c2ccccc2)c1", "Potency": "inactive"},
      {"molecule": "Cc1ccc2cc(CN(Cc3ccco3)C(=O)NCc3ccccc3)c(=O)[nH]c2c1C", "Potency": "inconclusive: 35.5 µM [inhibitor, partial curve, poor fit]"},
      {"molecule": "O=Cc1ccc(N2CCCCC2)cc1", "Potency": "inactive"},
      {"molecule": "C#CCOCCOCCOCCNc1nc(N2CCN(C(=O)[C@H]([C@@H](C)CC)n3cc(CCCCN)nn3)CC2)nc(N2CCN(C(=O)[C@H](C)n3cc(CCC(=O)O)nn3)CC2)n1", "Potency": "inactive"},
      {"molecule": "Cc1cc(/C(N)=N/OC(=O)c2cccc(Cl)c2)no1", "Potency": "inconclusive: 0.794 µM [activator, single point]"},
      {"molecule": "Cc1ccc(Cn2c(=O)n(Cc3ccco3)c(=O)c3oc4ccccc4c32)cc1", "Potency": "inactive"},
      {"molecule": "Cc1cc(C)c(OCCCCNCc2ccccc2)c(Cl)c1", "Potency": "inconclusive: 29.1 µM [inhibitor, single point]"},
      {"molecule": "CC(=O)N1CCN(C(=O)CN2C(=O)NC(C)(c3ccc4ccccc4c3)C2=O)CC1", "note": "(centres undefined)", "Potency": "inactive"},
      {"molecule": "N/C(=N\\N=C/c1ccc(Br)cc1)N/N=C\\c1ccc(Br)cc1", "Potency": "inconclusive: 10 µM [inhibitor, partial curve, poor fit]"},
      {"molecule": "Cc1nc(-c2ccccc2)sc1CCNC(=O)C(=O)Nc1ccc(F)c(Cl)c1", "Potency": "inactive"},
      {"molecule": "NC(=O)CSc1nc2sc(-c3ccccc3)cc2c(=O)n1N", "Potency": "inconclusive: 1.58 µM [inhibitor, partial curve, poor fit]"},
      {"molecule": "Cc1nnc(SCC(=O)N/N=C/c2cn(-c3ccccc3)nc2-c2ccccc2)n1-c1ccccc1", "Potency": "inconclusive: 20 µM [inhibitor, partial curve, poor fit]"},
      {"molecule": "Cn1nc(CC(=O)Nc2ncc(Br)s2)c2ccccc2c1=O", "Potency": "inconclusive: 35.5 µM [inhibitor, single point]"},
      {"molecule": "Cc1nc2ccccc2c2oc(C(=O)NCC3COc4ccccc4O3)cc12", "note": "(centres undefined)", "Potency": "active: 20.6 µM"},
      {"molecule": "CN(c1ccccc1)S(=O)(=O)c1ccc(C(=O)NCc2ccccc2F)cc1", "Potency": "inconclusive: 11.2 µM [inhibitor, partial curve]"},
      {"molecule": "O=C1c2ccccc2NC(c2c(Cl)cccc2Cl)N1Cc1ccccc1", "note": "(centres undefined)", "Potency": "inconclusive: 7.08 µM [inhibitor, partial curve, poor fit]"},
      {"molecule": "COc1ccc(C(=O)C(CN2CCOCC2)c2ccccc2)cc1F", "note": "(centres undefined)", "Potency": "inconclusive: 3.98 µM [inhibitor, full curve]"},
      {"molecule": "CC1CC(C)CN(CC(=O)NC(c2ccccc2)c2ccccc2)C1", "note": "(centres undefined)", "Potency": "inconclusive: 13 µM [inhibitor, partial curve, poor fit]"},
      {"molecule": "O=C(COC(=O)c1ccccc1C(=O)c1ccccc1)Nc1cccc([N+](=O)[O-])c1", "Potency": "inconclusive: 29.1 µM [inhibitor, single point]"}
    ]}
  ]
}
